Assay results from PubChem BioAssay AID504648 (National Center for Advancing Translational Sciences (NCATS), 2011).
Among all 390,000 compounds or so, about 610 (0.16%) were called active. Inconclusive results, whose numbers are uncertain, are shown with a selection of clear calls. Calls follow the shape of the dose curve; as a rule, active = well fitted inhibition curve with a large enough effect; inconclusive = small, poorly fitted or top-dose-only effect, or effect the other way, or another doubt; inactive = no such curve, though single readings can be large or run the other way. A potency beside an inconclusive call is a rough fit, not a confirmed value.

Assay: Nrf2 qHTS screen for inhibitors: counterscreen for cytotoxicity
Settings: A549 ARE-Fluc cells, CellTiter-Fluor viability, 18-24 h; series mostly up to 46 µM
Procedure, shortened: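 A549 ARE-Fluc cells in 5% FBS OPTI-MEM, 5000 cells/well, rested 2 h then exposed to compounds in concentration-response for 18-24 h at 37 °C. Viability by CellTiter-Fluor fluorescence (Ex 405/Em 525) after 30 min; luciferase luminescence (BugLite, 15 min, RT) read afterwards.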
Potency is read from the fitted curve at half-maximal effect.

| Compound | Potency |
| --- | --- |
| CCCN1C(=O)/C(=C\C=C2\N(CC)c3ccccc3C2(C)C)SC1=S | inconclusive: 3.66 µM [falling, partial curve] |
| C/C(=N\Nc1ccc([N+](=O)[O-])cc1)c1ccco1 | inconclusive: 23.1 µM [falling, single point] |
| CCCCn1cnc2c([nH]c3ccccc32)c1=O | inconclusive: 7.31 µM [falling, partial curve, poor fit] |
| COc1cccc(CNC(=O)C(=O)NCCC2CCCCN2S(=O)(=O)c2ccc(C)cc2)c1 (stereo unspecified) | inconclusive: 23.1 µM [falling, partial curve, poor fit] |
| COc1ccc(-n2nc([N+](=O)[O-])c(=NC3CCN(Cc4ccccc4)CC3)n2O)cc1 | inconclusive: 20.6 µM [falling, partial curve, poor fit] |
| Cc1ccc(NC(=O)CCOc2ccccc2)cc1 | inactive |
| CC(=O)c1c(C)[nH]c(C(=O)OCCOc2ccccc2)c1C | inactive |
| Nc1ccccc1S(=O)(=O)Nc1cccc2cccnc12 | inconclusive: 32.6 µM [falling, single point] |
| CCCCCCCC/C=C\CCCCCCCC(=O)NCCc1ccc(O)c(O)c1 | inconclusive: 20.6 µM [falling, partial curve, poor fit] |
| C=CCn1c(SCC(=O)O)nnc1-c1ccc(C(C)(C)C)cc1 | inactive |
| COC1CCCN(C(=O)c2cccc(OC3CCN(S(=O)(=O)N(C)C)CC3)c2)C1 (stereo unspecified) | inconclusive: 29.1 µM [falling, partial curve, poor fit] |
| O=C(C=P(c1ccccc1)(c1ccccc1)c1ccccc1)c1ccccc1-c1ccccc1C(=O)C=P(c1ccccc1)(c1ccccc1)c1ccccc1 | active: 4.61 µM |
| O=C(Oc1c(-c2ccccc2)oc2ccccc2c1=O)c1ccccc1 | inconclusive: 29.1 µM [falling, partial curve, poor fit] |
| Cc1nnc2sc(-c3ccc(NC(=O)c4ccc(-c5ccc(Cl)cc5Cl)o4)cc3)nn12 | inconclusive: 29.1 µM [falling, single point] |
| C=CCn1cc(/C=C/c2cc[n+](C)cc2)c2ccccc21 | inconclusive: 6.51 µM [falling, partial curve, poor fit] |
| CCOC(=O)Cc1csc(/N=C/c2c(O)n(-c3ccc(C)cc3C)c(=O)c3ccccc23)n1 | inconclusive: 23.1 µM [falling, single point] |
| COc1ccc(N(C(=O)CCl)C(C(=O)NCCc2ccccc2)c2cccs2)cc1Cl (stereo unspecified) | inconclusive: 16.4 µM [falling, partial curve, poor fit] |
| CCOC(=O)C1CCCN(Cc2cc(=O)oc3cc(C)ccc23)C1 (stereo unspecified) | inactive |
| O=C(Nc1nc(-c2ccccc2)cs1)c1ccc2c(=O)n3c(nc2c1)CCCCC3 | inconclusive: 16.4 µM [falling, partial curve, poor fit] |
| Cc1ccc(SCCN2CCN(C)CC2)cc1 | inactive |
| O=C1OC(c2ccccc2)(c2cc(Br)ccc2O)c2ccccc21 (stereo unspecified) | inconclusive: 29.1 µM [falling, single point] |

| Compound | Potency |
| --- | --- |
| NC(=O)CC(NC(=O)c1ccc(Br)cc1)c1ccc(NCCc2ccc(F)cc2)c([N+](=O)[O-])c1 (stereo unspecified) | inconclusive: 32.6 µM [falling, partial curve, poor fit] |
| O=C(OCc1ccccc1)N1CCOCCN(C(=O)OCc2ccccc2)CCOCC1 | inconclusive: 7.31 µM [falling, partial curve, poor fit] |
| COc1cc(C(=O)N2CCN(S(=O)(=O)c3ccc(C)cc3C)CC2)ccc1OCC(=O)N1CCOCC1 | inactive |
| Cc1ccc(NS(=O)(=O)c2ccc(-c3cnc(C4CC4)o3)cc2)c(C)c1 | inactive |
| CC[n+]1ccc(/C=C/c2ccc(N(C)C)cc2)c2ccccc21 | active: 9.2 µM |
| O=C(Nc1ccc([N+](=O)[O-])cc1)/C(=C/c1cccc([N+](=O)[O-])c1)NC(=O)C1CCCCC1 | inactive |
| Clc1ccc(-c2csc(Nc3cccnc3)n2)cc1 | inconclusive: 25.9 µM [falling, partial curve, poor fit] |
| O=C(Nc1ncc(Cc2ccccc2)s1)C1CCN(C(=O)c2ccco2)CC1 | inactive |
| c1ccc2oc(-c3[nH]ncc3CN3CCC(N4CCSCC4)CC3)cc2c1 | inconclusive: 25.9 µM [falling, single point] |
| CC(Cc1cccs1)NC(=O)Nc1ccc([N+](=O)[O-])cc1 (stereo unspecified) | inconclusive: 29.1 µM [activator, partial curve, poor fit] |
| CCN(CC)c1ccc(/C=C/c2cccc[n+]2C)c(OC)c1 | active: 7.31 µM |
| CC(C)OCCCN1C(=O)c2[nH]nc(-c3ccccc3O)c2C1c1cccc(OCc2ccccc2)c1 (stereo unspecified) | inconclusive: 16.4 µM [falling, partial curve, poor fit] |
| Cc1onc(-c2ccccc2)c1CNC(=O)CN1C(=O)c2ccccc2C1=O | inconclusive: 0.184 µM [activator, full curve, poor fit] |
| COC1=C(C)C(=O)C2=C(C1=O)C1C3CC4=C(C(=O)C(OC)=C(C)C4=O)C(CNC(=O)C(C)=O)N3C(C#N)C(C2)N1C (stereo unspecified) | active: 9.2 µM |
| Cc1ccc2c(c1)C(c1ccc(F)cc1)N(C(=O)c1cccc(C(F)(F)F)c1)CC(=O)N2 (stereo unspecified) | inconclusive: 29.1 µM [falling, partial curve, poor fit] |
| CCc1ccc(N2CC(C(=O)OCC(=O)Nc3ccc([N+](=O)[O-])cc3)CC2=O)cc1 (stereo unspecified) | inactive |
| Cc1ccc(NC(=O)CC(N)=S)cc1 | inconclusive: 2.31 µM [activator, partial curve, poor fit] |
| O=[N+]([O-])c1cnc(Nc2ccc(Cl)cn2)c([N+](=O)[O-])c1 | inconclusive: 20.6 µM [falling, partial curve, poor fit] |
| CCCNC(=O)Cn1c(SCc2ccccc2C)nc2ccncc21 | inactive |
| Cc1nn(-c2ccccc2)c2c1/C(=N/O)CC(C)(C)C2 | inconclusive: 18.4 µM [activator, partial curve, poor fit] |

Exported with bars between the fields: part of the list above.
Compound | Potency
C=CCn1c(SCC(=O)O)nnc1-c1ccc(C(C)(C)C)cc1 | inactive
CCOC(=O)C1CCCN(Cc2cc(=O)oc3cc(C)ccc23)C1 (stereo unspecified) | inactive
